Taken from: PubChem BioAssay AID1259331 (Drosophila RNAi Screening Center, 2017)

Screen: 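Fly transmembrane-protein genes that affect zinc toxicity in cultured cells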 (primary screen)
Cell system: Drosophila S2R+ cells
Reagent: long dsRNA against Drosophila genes
Time to read-out: 5 days (4 days knock-down, then 1 day zinc)
Challenge: zinc chloride at 15 mM final level for 1 day
Measurement: 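Total cellular ATP measured by luciferase luminescence as a viability proxy, turned into Z scores from three plate copies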
Direction: mean Z score: higher = more ATP than other wells, better survival under zinc; ATP luminescence: higher = more ATP, more viable cells
Call rule: 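Hit when the absolute Z score is greater than 1.5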
Meaning of the calls: active = hit, ATP up or down; inactive = not a hit
Shown is an unselected part of about 3,100 reagents. Over the whole deposit, 126 (4.1%) are marked active. 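Calls are per reagent; zinc was so toxic that few knock-downs lowered ATP further, so most hits raise ATP.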 The raw values are shown without normalisation. The numbers tell different reagents against one gene apart. Reagent sequences are not shown. The record does not give: the amount of reagent.

{"predicted target": "PGRP-LA", "reagent": 1, "mean Z score": -0.216, "ATP luminescence, replicate 1": 69361, "ATP luminescence, replicate 2": 59500, "Outcome": "inactive"}
{"predicted target": "PGRP-LA", "reagent": 2, "mean Z score": 2.08, "ATP luminescence, replicate 1": 68399, "ATP luminescence, replicate 2": 70201, "Outcome": "active"}
{"predicted target": "CG31717", "reagent": 1, "mean Z score": -0.0633, "ATP luminescence, replicate 1": 42508, "ATP luminescence, replicate 2": 43519, "Outcome": "inactive"}
{"predicted target": "Shab", "reagent": 1, "mean Z score": 0.262, "ATP luminescence, replicate 1": 44171, "ATP luminescence, replicate 2": 47411, "Outcome": "inactive"}
{"predicted target": "Shab", "reagent": 2, "mean Z score": -0.529, "ATP luminescence, replicate 1": 25948, "ATP luminescence, replicate 2": 30233, "Outcome": "inactive"}
{"predicted target": "CG6484", "reagent": 1, "mean Z score": -0.0627, "ATP luminescence, replicate 1": 30233, "ATP luminescence, replicate 2": 32684, "Outcome": "inactive"}
{"predicted target": "CG6484", "reagent": 2, "mean Z score": -0.654, "ATP luminescence, replicate 1": 53900, "ATP luminescence, replicate 2": 45783, "Outcome": "inactive"}
{"predicted target": "CG15406", "reagent": 1, "mean Z score": 0.593, "ATP luminescence, replicate 1": 53824, "ATP luminescence, replicate 2": 51818, "Outcome": "inactive"}
{"predicted target": "CG15406", "reagent": 2, "mean Z score": 0.2, "ATP luminescence, replicate 1": 64748, "ATP luminescence, replicate 2": 62804, "Outcome": "inactive"}
{"predicted target": "CG31262", "reagent": 1, "mean Z score": -0.399, "ATP luminescence, replicate 1": 33579, "ATP luminescence, replicate 2": 53618, "Outcome": "inactive"}
{"predicted target": "CG31262", "reagent": 2, "mean Z score": -0.312, "ATP luminescence, replicate 1": 49848, "ATP luminescence, replicate 2": 53893, "Outcome": "inactive"}
{"predicted target": "CG11537", "reagent": 1, "mean Z score": 24.4, "ATP luminescence, replicate 1": 7.28e5, "ATP luminescence, replicate 2": 27953, "Outcome": "active"}
{"predicted target": "CG11537", "reagent": 2, "mean Z score": 0.0184, "ATP luminescence, replicate 1": 64276, "ATP luminescence, replicate 2": 52898, "Outcome": "inactive"}
{"predicted target": "CG9826", "reagent": 1, "mean Z score": 1.36, "ATP luminescence, replicate 1": 65297, "ATP luminescence, replicate 2": 44357, "Outcome": "inactive"}
{"predicted target": "CG14971", "reagent": 1, "mean Z score": -0.0516, "ATP luminescence, replicate 1": 34885, "ATP luminescence, replicate 2": 27919, "Outcome": "inactive"}
{"predicted target": "CG9643", "reagent": 1, "mean Z score": 0.11, "ATP luminescence, replicate 1": 47600, "ATP luminescence, replicate 2": 48526, "Outcome": "inactive"}
{"predicted target": "CG9643", "reagent": 2, "mean Z score": 0.569, "ATP luminescence, replicate 1": 67983, "ATP luminescence, replicate 2": 63273, "Outcome": "inactive"}

Called active, of those listed so far:
{"predicted target": "PGRP-LA", "reagent": 2, "mean Z score": 2.08, "ATP luminescence, replicate 1": 68399, "ATP luminescence, replicate 2": 70201, "Outcome": "active"}
{"predicted target": "CG11537", "reagent": 1, "mean Z score": 24.4, "ATP luminescence, replicate 1": 7.28e5, "ATP luminescence, replicate 2": 27953, "Outcome": "active"}
